This passage reports cell number change and AC50 results from PubChem BioAssay AID2685 (National Center for Advancing Translational Sciences (NCATS), 2010).

As usually defined, the AC50 is the concentration giving half of the maximal activity seen.

Some of the results follow. Shown are side measurements of this screen, not its main read-out; they come without a call. Most of these compounds were active or inconclusive in the main read-out, so they are no random draw. Potencies come from curve fits of mixed quality, noted in brackets.

The test can be described thus: qHTS Assay for Lipid Storage Modulators in Drosophila S3 Cells.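 For cell number change: cells counted by Cell Tracker Red CMTPX staining in the red channel.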 The conditions noted are these: BODIPY lipid droplet fluorescence, 18-24 h; for cell number change: measured here: cell count max response, cells fed with added oleic acid. The gist of the method:
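Drosophila S3 cells loaded with oleic acid (400 uM, as added) and compounds at several concentrations; lipid droplets imaged by 488-nm laser-scanning cytometry, 500–530 nm intensity and object ratio to cell channel. Percent activity normalized to 20 uM Triacsin C.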
A general note: In qHTS, concentration-response curves come from the screen itself.

Setting [1] is: measured here: lipid fluorescence (Fed channel) AC50, cells fed with added oleic acid.
Where [2] appears, read: measured here: cell number channel AC50, cells fed with added oleic acid.

As for `COc1ccc(N2C(=O)CCC(C(=O)NCCN3CCOCC3)C2c2ccc(OC)c(OC)c2)cc1` (centres undefined), the cell number change amounted to 2.7%. Under setting [1], the concentration at half-maximal activity (AC50) was 0.0731 µM [falling, full curve, poor fit]. In the case of `COc1ccc(C(=O)Nc2nnc(S(=O)(=O)N3CCOCC3)s2)cc1`, the cell number change is -12.7%. In addition, the half-maximal activity concentration (AC50) under setting [1] is 0.58 µM [falling, single point]. Regarding `COc1ccc(NC(=O)CCN2CCCCC2)cc1`, the AC50 under setting [1] was 16.4 µM [falling, partial curve]. As to `N#CC1=C(N)OC2=C(CC/C2=C\c2ccccc2)C1c1ccccc1` (centres undefined), the cell number change was 34.9%. Besides, the concentration at half-maximal activity (AC50) under setting [2] was 0.0517 µM [rising, full curve, poor fit]. `Cc1occc1C(=O)NNC(=S)Nc1ccccc1C(F)(F)F`: the cell number change was -6.77%. The AC50 under setting [1] is 0.092 µM [rising, full curve, poor fit]. `COc1ccc(C2C(C(C)=O)=C(O)C(=O)N2c2nccs2)c(OC)c1` (centres undefined): the cell number change was -41.2%. Besides, the concentration at half-maximal activity (AC50) under setting [2] was 3.66 µM [falling, full curve, poor fit]. Under setting [1], the AC50 is 5.17 µM [falling, single point].

As for `O=S(=O)(c1cc(Cl)ccc1Cl)N1CCNCC1`, the cell number change was -0.996%.

Take `O=C(O)c1ccc(CNc2ccccc2C(=O)O)cc1`: the AC50 runs as follows: under setting [2], 5.17 µM [falling, partial curve]; under setting [1], 5.17 µM [falling, partial curve]. Regarding `Cc1ccccc1C(=O)N(C)c1ccccc1C(=O)NCc1ccccc1`, the cell number change worked out at 24.2%. For the same compound, under setting [1], the AC50 was 6.31 µM [rising, single point]. On to `Cc1ccc(CNc2nc(-c3cccs3)nc3ccccc23)cc1`, for which the cell number change amounted to 12.2%. The AC50 under setting [2] is 2.31 µM [rising, single point]. Besides, under setting [1], the AC50 was 2.59 µM [rising, full curve].

Take `O=C(CCc1ccc(S(=O)(=O)N2CCOCC2)cc1)OCc1nc2ccccc2s1`: the cell number change is -5.74%. In addition, the concentration at half-maximal activity (AC50) under setting [2] was 0.092 µM [falling, full curve, poor fit]. As to `Cn1c(-c2cc3ccccc3oc2=O)nc2ccccc21`, the cell number change is -8.88%. Also, the half-maximal activity concentration (AC50) under setting [1] was 0.651 µM [falling, single point]. Take `O=C1CCCc2c1cc(C(=O)Nc1ccc(Cl)cn1)c(=O)n2-c1ccccc1`: the cell number change is 21.9%. Moreover, the AC50 under setting [1] is 3.66 µM [rising, single point]. Turning to `CCOC(=O)c1ccc(NC(=O)c2ccco2)cc1`, the cell number change is -3.02%. The AC50 under setting [1] is 18.4 µM [falling, single point]. Consider `COc1ccc(C)cc1NC(=S)NN1CCN(C)CC1`, for which the cell number change turned out to be 0.896%. Consider `CC(C)(C)c1ccc(NC(=O)C2=CN3CCS(=O)(=O)N=C3C=C2)cc1`, for which the cell number change stood at 17%. For the same compound, under setting [1], the AC50 is 3.26 µM [rising, single point].

In the case of `Cc1ccc(Nc2nc(-c3cccnc3)cs2)cc1Cl`, the cell number change was -19.2%. The concentration at half-maximal activity (AC50) under setting [1] is 29.1 µM [rising, single point]. For the compound `O=S(=O)(c1ccc(Cl)cc1)c1cnc2ccccc2n1`, under setting [1], the AC50 is 29.1 µM [falling, partial curve, poor fit]. As for `COc1ccc(-c2cc(C)no2)cc1S(=O)(=O)N1CCN(c2ccc([N+](=O)[O-])cc2)CC1`, the cell number change was found to be 9.16%. Further, the AC50 under setting [1] is 0.651 µM [rising, partial curve]. On to `CCN(Cc1ccncc1)C(=O)C1CCC(=O)N(Cc2ccc(Cl)cc2)C1` (centres undefined), for which the cell number change is 27.2%. Moreover, the AC50 under setting [1] was 9.2 µM [rising, partial curve]. Turning to `COc1ccc(C(=O)OCN2C(=O)c3ccccc3C2=O)cc1`, the cell number change was 9.41%. Besides, the half-maximal activity concentration (AC50) under setting [1] is 35.5 µM [rising, single point].

Regarding `C[C@@H]1CC=C[C@H]2[C@H]1C(=O)N(Cc1ccccc1)[C@H]2c1ccc(-c2ccoc2)cc1F`, the cell number change is 19.3%. Moreover, under setting [1], the AC50 was 20.6 µM [rising, single point].

In the case of `O=C(O)c1ccc(Nc2ccc3nonc3c2[N+](=O)[O-])cc1`, the cell number change was -2.35%. Moreover, the concentration at half-maximal activity (AC50) under setting [1] was 29.1 µM [rising, single point]. For `O=C(/C=C/c1ccco1)NC(=S)Nc1cccc(C(=O)O)c1`, the cell number change is -7.41%. For the same compound, under setting [1], the AC50 is 6.51 µM [falling, single point]. Consider `CCC(=O)Oc1cccc(C(=O)Nc2ccc(-c3nnc(-c4ccco4)o3)cc2)c1`, for which the cell number change is -46.6%. Besides, the half-maximal activity concentration (AC50) under setting [2] was 29.1 µM [falling, single point]. In the case of `CN(C)c1ccc(-c2nn3c(-c4cccnc4)nnc3s2)cc1`, the cell number change was -10.9%. The AC50 under setting [1] is 0.092 µM [rising, full curve, poor fit]. Regarding `COc1ccc(S(=O)(=O)N2CC(C)N(C(=O)N(C)C)C2C(C)C)cc1` (centres undefined), the cell number change turned out to be 23.3%. For `N#CC1=C(S)N(c2ccccc2)C(c2ccc(-c3ccc(Cl)c(Cl)c3)o2)NC1=O` (centres undefined), the AC50 by setting is: under setting [2], 7.31 µM [rising, single point]; under setting [1], 23.1 µM [rising, partial curve].

With `O=C(Nc1cccc([N+](=O)[O-])c1)Nc1ccc2c(c1)CCC2`, the cell number change is -2.59%. In addition, under setting [1], the AC50 was 2.59 µM [falling, partial curve, poor fit]. As for `COc1ccc(Cl)cc1C(=O)NC(=S)Nc1cc(-c2nc3ccccc3[nH]2)ccc1C`, the half-maximal activity concentration (AC50) under setting [2] is 0.116 µM [falling, full curve, poor fit] and the AC50 under setting [1] is 0.259 µM [falling, full curve]. Regarding `Nc1nnc(C2CCCC2)s1`, the cell number change came to 3.06%. Further, under setting [1], the AC50 was 23.1 µM [falling, partial curve].

`COc1cc2cc(C#N)c(SCC(=O)Nc3cc(C)on3)nc2cc1OC`: the cell number change turned out to be 31.3%. The half-maximal activity concentration (AC50) under setting [2] is 16.4 µM [rising, single point]. In the case of `COc1ccc(CCN2CC3=C(C2=O)C(c2ccccc2)NC(=O)N3C)cc1OC` (centres undefined), the cell number change was 27.8%. The AC50 under setting [1] was 29.1 µM [rising, single point].

Take `CC(=O)/C=C1\SC(CC(=O)O)C(=O)N1c1ccccc1` (centres undefined): the cell number change is 10.9%. Besides, the AC50 under setting [1] is 0.58 µM [rising, full curve, poor fit]. `O=C(c1ccco1)N1CCN(C(=O)N2CCCC2)CC1`: the cell number change was -41.8%. Further, the half-maximal activity concentration (AC50) under setting [2] was 0.13 µM [falling, full curve]. `CNC(=O)CSc1ncnc2c1cnn2-c1ccccc1`: the cell number change was found to be 11.8%. Further, under setting [1], the half-maximal activity concentration (AC50) was 2.59 µM [rising, partial curve].

As to `CCCCc1nc2sc3c(SCCN(C)C)ncnc3c2c2c1CCC2`, the AC50 is, setting by setting: under setting [2], 0.164 µM [falling, full curve]; under setting [1], 0.092 µM [falling, full curve].

With `CCOC(=O)c1c2c3c(cccc3[nH]c1=O)C(=O)c1ccccc1-2`, the cell number change turned out to be 32.3%. Also, under setting [2], the AC50 was 0.0058 µM [rising, full curve, poor fit].

For `CC1CCCCN1C(=O)COc1ccc(S(=O)(=O)N2CCCC2)cc1[N+](=O)[O-]` (centres undefined), the cell number change is 0.0695%.
